Measurements reported in PubChem BioAssay AID1224828 (NIAID, 2016).
Assay: 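Find genes required for NF-kappaB p65 moving into the nucleus after LPS in mouse macrophages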 (primary screen). System: mouse RAW264.7 G9 macrophage reporter cells (GFP-p65, Tnf promoter-mCherry). Reagents: siRNA pool against mouse genes, 100 nM. Time to read-out: 2 days siRNA transfection, then 40 min LPS before fixation. Treatment: LPS (Salmonella minnesota R595) at 10 ng/ml. Measurement: 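Microscopy ratio of nuclear to perinuclear-ring GFP-p65 signal, scaled to the plate median; gene score is the average of two replicate robust z-scores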. Scale: p65 translocation robust z-score: higher = more nuclear NF-kappaB p65 after LPS than the plate median; nuclear/cytoplasmic p65 ratio: higher = more nuclear NF-kappaB p65. Active means: 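Active if robust z is above 3.3 (negative regulators) or below -1.56, the Tlr4 control median (positive regulators); activity score 50 or more; control wells not called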. Meaning of the calls: active = hit (p65 shift raised or lowered); inactive = no clear change.
Here is an unselected part of about 17,000 reagents tested. 762 of all reagents (4.5%) were called active. 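Active calls include both raised and lowered p65 entry, mostly lowered; wells with fewer than 50 cells lack a z-score.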 Raw values vary from plate to plate and are shown uncorrected.

| p65 translocation robust z-score | nuclear/cytoplasmic p65 ratio, rep 1 | nuclear/cytoplasmic p65 ratio, rep 2 | low cell count flag | Outcome | Gene | PubChem SID |
| --- | --- | --- | --- | --- | --- | --- |
| 1.08 | 1.56 | 1.34 | enough cells to score | inactive | Rcor2 | SID315476437 |
| -0.95 | 1.41 | 1.31 | enough cells to score | inactive | Rnf215 | SID315474273 |
| – | 1.3 | 1.26 | fewer than 50 cells per well; well left out of scoring | inactive | Gm20558 | SID315481568 |
| -0.69 | 1.49 | 1.24 | enough cells to score | inactive | Psen2 | SID315468735 |
| 2.09 | 1.44 | 1.5 | enough cells to score | inactive | Senp7 | SID315472359 |
| -0.15 | 1.48 | 1.39 | enough cells to score | inactive | Ppp1r14c | SID315475251 |
| -0.6 | 1.4 | 1.28 | enough cells to score | inactive | Dab2 | SID315466255 |
| -0.2 | 1.51 | 1.67 | enough cells to score | inactive | Dab2 | SID315481761 |
| 1.04 | 1.56 | 1.25 | enough cells to score | inactive | Rtn4 | SID315473574 |
| 0.27 | 1.45 | 1.4 | enough cells to score | inactive | Ncoa1 | SID315468114 |
| – | 1.35 | 1.73 | fewer than 50 cells per well; well left out of scoring | inactive | Phgr1 | SID315471134 |
| -0.09 | 1.54 | 1.55 | enough cells to score | inactive | Chpf | SID315474915 |
| 0.39 | 1.67 | 1.74 | enough cells to score | inactive | Gorab | SID315476130 |
| 1.6 | 1.88 | 1.83 | enough cells to score | inactive | C1s2 | SID315481029 |
| -0.8 | 1.45 | 1.42 | enough cells to score | inactive | Sqle | SID315469456 |
| – | 1.15 | 0.983 | fewer than 50 cells per well; well left out of scoring | inactive | Prph | SID315468719 |
| -0.2 | 1.32 | 1.22 | enough cells to score | inactive | Rbsn | SID315475559 |
| 0.77 | 1.6 | 1.47 | enough cells to score | inactive | Pepd | SID315468466 |
| -0.59 | 1.46 | 1.39 | enough cells to score | inactive | Ubqln3 | SID315479737 |
| 0.15 | 1.61 | 1.3 | enough cells to score | inactive | Dffb | SID315466325 |
| 0.16 | 1.52 | 1.51 | enough cells to score | inactive | Rrp8 | SID315476302 |
| 0.38 | 1.06 | 1.61 | enough cells to score | inactive | Platr26 | SID315481783 |
| 0.35 | 1.49 | 1.26 | enough cells to score | inactive | Selenop | SID315469188 |
| – | 1.2 | 1.19 | fewer than 50 cells per well; well left out of scoring | inactive | Lamtor1 | SID315472483 |
| -0.56 | 1.27 | 1.22 | enough cells to score | inactive | Rpl21 | SID315469011 |
| – | 0.908 | 0.84 | fewer than 50 cells per well; well left out of scoring | inactive | Pabir2 | SID315475610 |
| -0.11 | 1.55 | 1.77 | enough cells to score | inactive | Cyp2c39 | SID315466232 |
| 0.31 | 1.5 | 1.39 | enough cells to score | inactive | Hoxd10 | SID315467275 |
| 0.69 | 1.5 | 1.49 | enough cells to score | inactive | Gata4 | SID315466839 |
| 1.91 | 1.79 | 1.78 | enough cells to score | inactive | Rbms1 | SID315471714 |
| -0.16 | 1.37 | 1.41 | enough cells to score | inactive | Fez1 | SID315479233 |
| -0.24 | 1.37 | 1.37 | enough cells to score | inactive | Glis2 | SID315475811 |
| -0.9 | 1.45 | 1.33 | enough cells to score | inactive | Or5h26 | SID315480423 |
| – | 1.4 | 1.68 | fewer than 50 cells per well; well left out of scoring | inactive | Ogfod1 | SID315480914 |
| -1.95 | 1.16 | 1.66 | enough cells to score | active | Nmrk1 | SID315478453 |
| -1.1 | 1.47 | 1.56 | enough cells to score | inactive | Caskin1 | SID315480813 |
| -1.33 | 1.34 | 0.97 | enough cells to score | inactive | Stk11ip | SID315474297 |
| – | 1.29 | 1.06 | fewer than 50 cells per well; well left out of scoring | inactive | Psmc1 | SID315468744 |
| -0.68 | 1.66 | 1.22 | enough cells to score | inactive | Phkg1 | SID315468497 |
| -1.48 | 1.25 | 1.66 | enough cells to score | inactive | Xtbd1 | SID315470989 |
| 0.87 | 1.74 | 1.74 | enough cells to score | inactive | Usp36 | SID315474523 |
| -0.81 | 1.33 | 1.3 | enough cells to score | inactive | Clic3 | SID315473805 |
| -0.08 | 1.42 | 1.24 | enough cells to score | inactive | Osgep | SID315472315 |
| – | 1.47 | 1.24 | fewer than 50 cells per well; well left out of scoring | inactive | Or11h4b | SID315479958 |
| -0.05 | 1.4 | 1.37 | enough cells to score | inactive | Myh2 | SID315468058 |
| -1.29 | 1.5 | 1.2 | enough cells to score | inactive | Pklr | SID315468554 |
| -0.17 | 1.66 | 1.53 | enough cells to score | inactive | Nisch | SID315472110 |
| 1.65 | 1.93 | 1.6 | enough cells to score | inactive | Pik3r1 | SID315468512 |
| 0.18 | 1.42 | 1.4 | enough cells to score | inactive | Msra | SID315476890 |
| – | 1.65 | 1.53 | fewer than 50 cells per well; well left out of scoring | inactive | H2-Q5 | SID315467123 |
| 2.16 | 1.43 | 1.89 | enough cells to score | inactive | Scgb1a1 | SID315469958 |
| -0.69 | 1.6 | 1.27 | enough cells to score | inactive | Galnt4 | SID315466820 |
| – | 1.23 | 1.06 | fewer than 50 cells per well; well left out of scoring | inactive | Magea13 | SID315475108 |
| 2.83 | 1.95 | 1.6 | enough cells to score | inactive | Grid2 | SID315467028 |
| -0.76 | 1.36 | 1.27 | enough cells to score | inactive | Elf2 | SID315473766 |
| -1.35 | 1.42 | 1.42 | enough cells to score | inactive | Aqp7 | SID315465484 |
| -0.64 | 1.54 | 1.52 | enough cells to score | inactive | Mgmt | SID315467921 |
| -0.46 | 1.31 | 1.39 | enough cells to score | inactive | Dars2 | SID315478509 |
| 0.49 | 1.64 | 1.8 | enough cells to score | inactive | Napepld | SID315479655 |

Ordered by “nuclear/cytoplasmic p65 ratio, rep 2” (descending): 7 of the entries above.
| p65 translocation robust z-score | nuclear/cytoplasmic p65 ratio, rep 1 | nuclear/cytoplasmic p65 ratio, rep 2 | low cell count flag | Outcome | Gene | PubChem SID |
| --- | --- | --- | --- | --- | --- | --- |
| 0.49 | 1.64 | 1.8 | enough cells to score | inactive | Napepld | SID315479655 |
| 2.83 | 1.95 | 1.6 | enough cells to score | inactive | Grid2 | SID315467028 |
| -0.64 | 1.54 | 1.52 | enough cells to score | inactive | Mgmt | SID315467921 |
| -1.35 | 1.42 | 1.42 | enough cells to score | inactive | Aqp7 | SID315465484 |
| -0.46 | 1.31 | 1.39 | enough cells to score | inactive | Dars2 | SID315478509 |
| -0.76 | 1.36 | 1.27 | enough cells to score | inactive | Elf2 | SID315473766 |
| – | 1.23 | 1.06 | fewer than 50 cells per well; well left out of scoring | inactive | Magea13 | SID315475108 |
